According to the supplement of paper PMC10849652:
The other results are listed elsewhere or left out.

The chains behind the UniProt entries cited, without tags or fusion partners. Where a name states a change or a piece, a line headed by the entry shows the natural chain unless it says otherwise.
UniProt Q71RC2, whole entry, looked up: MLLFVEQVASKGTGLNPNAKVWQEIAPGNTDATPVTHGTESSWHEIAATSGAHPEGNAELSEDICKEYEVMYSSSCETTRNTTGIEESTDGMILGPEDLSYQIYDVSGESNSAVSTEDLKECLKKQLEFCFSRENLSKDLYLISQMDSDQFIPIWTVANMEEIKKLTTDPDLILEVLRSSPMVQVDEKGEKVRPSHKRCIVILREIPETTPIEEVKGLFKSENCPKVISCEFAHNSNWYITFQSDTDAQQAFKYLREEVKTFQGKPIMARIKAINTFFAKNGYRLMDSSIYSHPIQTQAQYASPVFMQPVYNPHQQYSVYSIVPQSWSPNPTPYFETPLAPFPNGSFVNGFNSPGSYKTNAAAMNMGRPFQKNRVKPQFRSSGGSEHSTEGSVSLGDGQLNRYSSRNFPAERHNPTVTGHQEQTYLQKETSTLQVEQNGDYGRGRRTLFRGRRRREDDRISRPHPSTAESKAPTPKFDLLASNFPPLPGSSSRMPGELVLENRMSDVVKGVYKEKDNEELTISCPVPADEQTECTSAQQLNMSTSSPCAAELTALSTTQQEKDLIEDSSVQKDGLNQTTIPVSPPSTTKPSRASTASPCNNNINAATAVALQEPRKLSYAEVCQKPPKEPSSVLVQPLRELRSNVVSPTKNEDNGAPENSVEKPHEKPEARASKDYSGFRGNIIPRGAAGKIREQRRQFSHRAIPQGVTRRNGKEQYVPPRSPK
UniProt Q9H6V9: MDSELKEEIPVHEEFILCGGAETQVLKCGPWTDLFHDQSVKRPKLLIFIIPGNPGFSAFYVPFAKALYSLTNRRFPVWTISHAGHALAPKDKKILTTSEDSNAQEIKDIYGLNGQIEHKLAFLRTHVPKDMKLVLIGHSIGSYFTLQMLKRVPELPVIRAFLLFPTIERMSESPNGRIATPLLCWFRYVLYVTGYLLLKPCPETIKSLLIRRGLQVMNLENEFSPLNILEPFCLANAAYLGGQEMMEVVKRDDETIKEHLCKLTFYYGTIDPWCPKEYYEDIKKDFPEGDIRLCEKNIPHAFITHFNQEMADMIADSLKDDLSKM
UniProt P48059, whole entry, looked up: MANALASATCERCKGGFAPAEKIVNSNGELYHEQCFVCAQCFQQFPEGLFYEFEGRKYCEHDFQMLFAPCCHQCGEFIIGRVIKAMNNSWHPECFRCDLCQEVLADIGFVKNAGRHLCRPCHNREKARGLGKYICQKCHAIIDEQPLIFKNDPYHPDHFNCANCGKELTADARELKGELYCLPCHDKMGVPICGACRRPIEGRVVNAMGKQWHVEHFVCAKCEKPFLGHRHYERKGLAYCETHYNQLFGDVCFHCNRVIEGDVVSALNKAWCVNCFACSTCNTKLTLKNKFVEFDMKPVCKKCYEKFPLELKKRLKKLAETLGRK
UniProt O94898: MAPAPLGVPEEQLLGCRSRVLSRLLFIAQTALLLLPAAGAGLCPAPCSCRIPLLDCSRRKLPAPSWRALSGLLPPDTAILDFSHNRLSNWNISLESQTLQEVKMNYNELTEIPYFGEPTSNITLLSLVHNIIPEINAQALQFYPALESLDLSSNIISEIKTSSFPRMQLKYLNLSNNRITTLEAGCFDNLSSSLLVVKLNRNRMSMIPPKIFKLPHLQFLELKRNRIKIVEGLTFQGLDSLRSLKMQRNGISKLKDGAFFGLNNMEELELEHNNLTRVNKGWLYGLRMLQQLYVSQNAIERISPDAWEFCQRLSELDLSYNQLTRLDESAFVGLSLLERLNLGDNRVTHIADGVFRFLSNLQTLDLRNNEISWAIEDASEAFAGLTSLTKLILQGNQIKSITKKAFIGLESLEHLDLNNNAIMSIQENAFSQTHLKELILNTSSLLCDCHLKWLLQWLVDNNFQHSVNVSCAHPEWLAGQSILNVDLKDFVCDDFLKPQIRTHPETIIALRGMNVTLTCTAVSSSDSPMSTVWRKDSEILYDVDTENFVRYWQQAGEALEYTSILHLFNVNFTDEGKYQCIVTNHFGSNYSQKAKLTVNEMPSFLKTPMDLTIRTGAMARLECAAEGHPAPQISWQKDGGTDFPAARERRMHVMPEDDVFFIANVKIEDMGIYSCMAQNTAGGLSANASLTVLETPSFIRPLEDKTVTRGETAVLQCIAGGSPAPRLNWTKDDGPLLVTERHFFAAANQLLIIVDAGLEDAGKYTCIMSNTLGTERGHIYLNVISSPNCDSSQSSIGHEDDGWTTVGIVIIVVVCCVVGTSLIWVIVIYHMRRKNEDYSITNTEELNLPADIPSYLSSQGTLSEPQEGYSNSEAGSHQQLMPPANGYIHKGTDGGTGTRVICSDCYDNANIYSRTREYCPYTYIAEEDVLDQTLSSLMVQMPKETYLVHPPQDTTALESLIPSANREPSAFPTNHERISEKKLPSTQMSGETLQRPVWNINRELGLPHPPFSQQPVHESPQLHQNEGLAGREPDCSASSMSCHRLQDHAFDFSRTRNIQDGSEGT
UniProt Q9UIC8: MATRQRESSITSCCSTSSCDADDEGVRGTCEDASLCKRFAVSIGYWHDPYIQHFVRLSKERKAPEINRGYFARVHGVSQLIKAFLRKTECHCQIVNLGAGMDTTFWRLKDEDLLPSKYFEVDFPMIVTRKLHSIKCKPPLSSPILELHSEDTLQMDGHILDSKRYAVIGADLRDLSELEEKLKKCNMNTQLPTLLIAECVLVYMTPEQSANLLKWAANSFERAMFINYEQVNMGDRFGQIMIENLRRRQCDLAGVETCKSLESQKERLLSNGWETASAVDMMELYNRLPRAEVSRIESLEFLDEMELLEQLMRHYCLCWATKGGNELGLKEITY
UniProt Q92539: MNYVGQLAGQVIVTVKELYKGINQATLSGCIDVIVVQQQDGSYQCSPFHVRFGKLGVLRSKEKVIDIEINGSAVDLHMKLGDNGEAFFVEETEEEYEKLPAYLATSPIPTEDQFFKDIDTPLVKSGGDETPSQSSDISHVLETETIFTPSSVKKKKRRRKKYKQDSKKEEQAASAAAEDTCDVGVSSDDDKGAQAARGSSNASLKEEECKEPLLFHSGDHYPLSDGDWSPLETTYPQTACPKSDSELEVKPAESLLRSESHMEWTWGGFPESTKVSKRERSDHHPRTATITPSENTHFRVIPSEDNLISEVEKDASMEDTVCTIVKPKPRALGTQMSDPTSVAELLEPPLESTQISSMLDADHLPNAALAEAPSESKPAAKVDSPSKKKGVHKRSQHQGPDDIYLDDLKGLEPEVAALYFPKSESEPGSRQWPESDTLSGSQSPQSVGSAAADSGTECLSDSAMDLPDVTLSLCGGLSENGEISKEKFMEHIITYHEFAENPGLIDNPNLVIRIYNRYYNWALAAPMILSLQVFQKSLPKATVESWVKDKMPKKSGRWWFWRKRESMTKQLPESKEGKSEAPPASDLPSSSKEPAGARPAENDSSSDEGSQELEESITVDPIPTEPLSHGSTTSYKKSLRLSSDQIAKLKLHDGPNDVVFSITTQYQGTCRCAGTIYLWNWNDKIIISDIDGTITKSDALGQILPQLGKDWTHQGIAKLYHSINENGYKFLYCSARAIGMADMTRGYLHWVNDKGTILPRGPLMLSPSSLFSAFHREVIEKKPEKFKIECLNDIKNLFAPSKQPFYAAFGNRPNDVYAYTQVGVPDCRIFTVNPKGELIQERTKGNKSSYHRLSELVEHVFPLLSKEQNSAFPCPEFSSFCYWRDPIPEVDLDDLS
UniProt P28838: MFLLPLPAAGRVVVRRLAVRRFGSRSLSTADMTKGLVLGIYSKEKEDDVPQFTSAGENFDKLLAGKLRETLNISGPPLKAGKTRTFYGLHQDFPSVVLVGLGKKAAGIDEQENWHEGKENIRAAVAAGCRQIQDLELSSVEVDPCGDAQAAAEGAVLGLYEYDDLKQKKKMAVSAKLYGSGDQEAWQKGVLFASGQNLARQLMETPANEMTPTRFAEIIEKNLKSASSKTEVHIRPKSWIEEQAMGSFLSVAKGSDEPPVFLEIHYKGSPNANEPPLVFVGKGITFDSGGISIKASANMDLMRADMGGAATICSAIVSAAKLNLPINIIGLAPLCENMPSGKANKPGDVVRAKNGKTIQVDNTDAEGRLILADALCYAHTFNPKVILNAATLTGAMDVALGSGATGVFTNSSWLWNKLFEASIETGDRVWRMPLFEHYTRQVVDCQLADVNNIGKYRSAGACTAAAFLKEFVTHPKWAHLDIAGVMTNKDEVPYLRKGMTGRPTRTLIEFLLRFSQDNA
UniProt Q9Y2U8: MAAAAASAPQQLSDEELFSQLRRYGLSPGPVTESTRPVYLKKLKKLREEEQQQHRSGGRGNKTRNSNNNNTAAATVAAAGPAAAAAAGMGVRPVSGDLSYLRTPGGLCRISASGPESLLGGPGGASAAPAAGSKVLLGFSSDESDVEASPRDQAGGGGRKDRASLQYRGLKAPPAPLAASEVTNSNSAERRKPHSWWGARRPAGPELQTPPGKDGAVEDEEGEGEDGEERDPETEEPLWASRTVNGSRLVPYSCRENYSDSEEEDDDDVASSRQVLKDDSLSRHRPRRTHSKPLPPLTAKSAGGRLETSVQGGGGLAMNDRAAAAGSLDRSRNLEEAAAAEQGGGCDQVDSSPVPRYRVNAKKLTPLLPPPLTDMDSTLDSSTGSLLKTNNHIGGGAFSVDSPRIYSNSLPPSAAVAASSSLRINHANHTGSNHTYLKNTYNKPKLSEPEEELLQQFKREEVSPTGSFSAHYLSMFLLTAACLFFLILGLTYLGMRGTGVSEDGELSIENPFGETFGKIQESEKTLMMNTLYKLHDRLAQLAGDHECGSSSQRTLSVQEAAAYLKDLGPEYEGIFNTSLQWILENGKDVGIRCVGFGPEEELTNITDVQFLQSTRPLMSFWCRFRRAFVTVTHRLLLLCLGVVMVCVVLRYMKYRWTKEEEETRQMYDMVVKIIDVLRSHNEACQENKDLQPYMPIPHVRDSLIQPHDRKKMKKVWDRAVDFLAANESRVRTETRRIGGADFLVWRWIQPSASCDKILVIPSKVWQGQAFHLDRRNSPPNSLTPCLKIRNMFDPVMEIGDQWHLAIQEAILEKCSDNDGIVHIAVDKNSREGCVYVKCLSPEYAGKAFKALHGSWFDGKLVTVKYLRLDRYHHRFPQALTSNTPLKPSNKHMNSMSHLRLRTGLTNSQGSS
UniProt Q9BU23: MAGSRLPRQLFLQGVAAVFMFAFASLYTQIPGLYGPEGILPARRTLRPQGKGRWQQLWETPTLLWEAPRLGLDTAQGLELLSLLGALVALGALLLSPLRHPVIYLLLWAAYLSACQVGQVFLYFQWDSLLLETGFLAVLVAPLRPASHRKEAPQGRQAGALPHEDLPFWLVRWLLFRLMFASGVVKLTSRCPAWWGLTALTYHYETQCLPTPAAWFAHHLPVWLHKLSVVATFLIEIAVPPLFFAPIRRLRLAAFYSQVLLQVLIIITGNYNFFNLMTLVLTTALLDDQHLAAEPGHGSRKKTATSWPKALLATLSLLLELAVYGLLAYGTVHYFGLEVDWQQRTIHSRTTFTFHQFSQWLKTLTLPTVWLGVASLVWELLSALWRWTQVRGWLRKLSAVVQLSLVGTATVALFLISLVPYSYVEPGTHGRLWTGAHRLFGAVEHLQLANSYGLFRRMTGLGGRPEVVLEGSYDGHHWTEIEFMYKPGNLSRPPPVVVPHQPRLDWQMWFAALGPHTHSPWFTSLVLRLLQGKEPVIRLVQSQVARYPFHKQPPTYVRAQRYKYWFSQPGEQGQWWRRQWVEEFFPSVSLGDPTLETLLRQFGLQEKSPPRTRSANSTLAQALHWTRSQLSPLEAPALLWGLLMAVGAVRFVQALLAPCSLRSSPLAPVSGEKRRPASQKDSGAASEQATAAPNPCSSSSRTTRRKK
UniProt Q14847: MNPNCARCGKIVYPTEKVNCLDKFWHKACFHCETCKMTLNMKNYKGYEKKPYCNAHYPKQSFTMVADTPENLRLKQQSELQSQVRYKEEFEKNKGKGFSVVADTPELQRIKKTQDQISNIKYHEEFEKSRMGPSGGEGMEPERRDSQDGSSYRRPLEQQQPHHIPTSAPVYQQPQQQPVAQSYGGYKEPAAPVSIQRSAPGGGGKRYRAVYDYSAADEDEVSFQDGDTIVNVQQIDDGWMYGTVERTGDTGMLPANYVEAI
UniProt Q9C0E8: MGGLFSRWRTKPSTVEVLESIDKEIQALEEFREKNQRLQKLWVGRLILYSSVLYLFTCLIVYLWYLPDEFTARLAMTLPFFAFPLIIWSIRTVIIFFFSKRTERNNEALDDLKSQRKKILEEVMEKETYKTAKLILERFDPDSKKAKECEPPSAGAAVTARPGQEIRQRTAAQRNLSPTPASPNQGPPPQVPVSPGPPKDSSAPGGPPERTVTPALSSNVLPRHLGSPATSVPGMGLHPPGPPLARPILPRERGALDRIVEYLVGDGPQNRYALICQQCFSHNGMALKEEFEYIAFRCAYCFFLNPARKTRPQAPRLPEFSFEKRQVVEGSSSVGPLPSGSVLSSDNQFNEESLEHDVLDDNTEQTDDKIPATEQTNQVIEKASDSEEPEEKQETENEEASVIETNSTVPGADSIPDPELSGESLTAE

Columns and labels:
Assay in all cases: log2 fold change, soluble protein after heating vs DMSO (PISA); higher = thermal stabilisation; K562 cells, 10 uM, 30 min; active = over 0.2 and 3.5 SD of the protein, either way, in both replicates (recomputed)
[1] = compound: Cc1ccc(NC(=O)c2ccc(CN3CC[C@H](N(C)C)C3)c(C(F)(F)F)c2)cc1Nc1nccc(-c2cncnc2)n1 [bafetinib]
How it was run: (§1)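 Quantification of soluble protein used TMTpro 16plex LC-MS/MS, with channel sums equalised. Samples were the supernatant after 21,000xg for 90 min of pooled aliquots from K562 cells (2×10^6 cells/mL) treated with 10 μM compound for 30 min, heated for 3 min over 48°C-58°C, and extracted in PBS with 0.5% NP-40 at 4°C. Values, from duplicates, describe thermal stability against control samples on a log2 fold-change scale.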

[2] = compound: Cc1cccc(CC(=O)N2CCc3c2ccc(-c2cn(C)c4ncnc(N)c24)c3F)n1
How it was run: as §1

[3] = compound: Cc1cn(-c2cc(NC(=O)c3ccc(C)c(Nc4nccc(-c5cccnc5)n4)c3)cc(C(F)(F)F)c2)cn1 [nilotinib]
How it was run: as §1

[4] = compound: Cc1nc(Nc2n[nH]c3c2CN(C(=O)N[C@H](CN(C)C)c2ccccc2)C3(C)C)c2sccc2n1
How it was run: as §1

[5] = compound: Cc1nc(Nc2ncc(C(=O)Nc3c(C)cccc3Cl)s2)cc(N2CCN(CCO)CC2)n1 [dasatinib]
How it was run: as §1

[6] = compound: Cc1ncc(-c2ccnc(Nc3ccc(S(C)(=O)=O)cc3)n2)n1C(C)C
How it was run: as §1

[7] = compound: Cn1cc(-c2ccc3c(c2)CCN3C(=O)Cc2cccc(C(F)(F)F)c2)c2c(N)ncnc21
How it was run: as §1

[8] = compound: Cn1cc(-c2ccc3nnc(C(F)(F)c4ccc5ncccc5c4)n3n2)cn1
How it was run: as §1

[9] = compound: Cn1cncc1[C@@](N)(c1ccc(Cl)cc1)c1ccc2c(c1)c(-c1cccc(Cl)c1)cc(=O)n2C [tipifarnib]
How it was run: as §1

[10] = compound: FC(F)(F)c1ccc(/C=C/c2nc(COc3ccc(CCCCn4ccnn4)cc3)co2)cc1 [mubritinib]
How it was run: as §1

[11] = compound: NC(=O)Nc1cc(-c2cccc(F)c2)sc1C(=O)N[C@H]1CCCNC1
How it was run: as §1

[12] = compound: NC(=O)c1cnc(N[C@@H]2CCCC[C@@H]2N)nc1Nc1cccc(-n2nccn2)c1
How it was run: as §1

[13] = compound: NC1(c2ccc(-c3nc4ccn5c(=O)[nH]nc5c4cc3-c3ccccc3)cc2)CCC1
How it was run: as §1

[14] = compound: NCC(=O)Nc1ccc(-n2nc(C(F)(F)F)cc2-c2ccc3c(ccc4ccccc43)c2)cc1
How it was run: as §1

[15] = compound: Nc1ccccc1NC(=O)c1ccc(CNC(=O)OCc2cccnc2)cc1 [entinostat]
How it was run: as §1

[16] = compound: O=C(CCCCCCC(=O)Nc1ccccc1)NO [vorinostat]
How it was run: as §1

[17] = compound: O=C(CCCCCCNC(=O)c1cnc(N(c2ccccc2)c2ccccc2Cl)nc1)NO [citarinostat]
How it was run: as §1

[18] = compound: O=C(O)c1ccc2c(c1)nc(Nc1cccc(Cl)c1)c1ccncc12 [silmitasertib]
How it was run: as §1

[19] = compound: O=C1NC(=O)C(c2cnc3ccccn23)=C1c1cn2c3c(cc(F)cc13)CN(C(=O)N1CCCCC1)CC2
How it was run: as §1

[20] = compound: c1cc(OCCN2CCCCC2)cc(-c2n[nH]c3ccc(-c4nnc[nH]4)cc23)c1
How it was run: as §1

Measured: log2 fold change

LARP4 isoform 4 (UniProt Q71RC2)
inactive: [1] 0.022 | [2] -0.027 | [3] -0.073 | [4] -0.147 | [5] 0 | [6] -0.028 | [7] -0.078 | [8] -0.103 | [9] 0.071 | [10] -0.046 | [11] -0.034 | [12] -0.094 | [13] 0.084 | [14] 0.048 | [15] 0.037 | [16] 0.133 | [17] -0.004 | [18] 0.043 | [19] 0.009 | [20] -0.116

LDAH isoform 2 (UniProt Q9H6V9)
inactive: [1] -0.188 | [2] -0.027 | [3] 0.175 | [4] -0.122 | [5] -0.215 | [6] -0.035 | [7] 0.082 | [8] -0.025 | [9] 0.076 | [10] 0.094 | [11] -0.049 | [12] 0.018 | [14] -0.041 | [15] 0.014 | [16] -0.011 | [17] 0.061 | [18] 0.014 | [19] -0.16 | [20] -0.057
active: [13] 0.979

LIMS1 isoform 3 (UniProt P48059)
inactive: [1] -0.024 | [2] 0.008 | [3] -0.026 | [4] 0.002 | [5] 0.017 | [6] 0.006 | [7] 0.019 | [8] 0.02 | [9] -0.027 | [10] 0.002 | [11] -0.024 | [12] -0.002 | [13] 0.057 | [14] 0.041 | [15] -0.015 | [16] -0.005 | [17] -0.032 | [18] 0.007 | [19] -0.014 | [20] -0.039

LRIG2 (UniProt O94898)
inactive: [1] -0.022 | [2] -0.142 | [3] -0.077 | [4] -0.145 | [5] -0.032 | [6] 0.224 | [7] 0.01 | [8] -0.005 | [9] 0.057 | [10] -0.178 | [11] -0.067 | [12] -0.004 | [13] -0.029 | [14] -0.011 | [15] 0.012 | [16] -0.017 | [17] -0.029 | [18] 0.009 | [19] 0.011 | [20] 0.009

LCMT1 (UniProt Q9UIC8)
inactive: [1] -0.021 | [2] 0.068 | [3] -0.007 | [4] -0.001 | [5] -0.026 | [6] -0.028 | [7] 0.068 | [8] 0.008 | [9] -0.015 | [10] 0.088 | [11] -0.032 | [12] -0.018 | [13] -0.151 | [14] 0.015 | [15] 0.002 | [16] 0.027 | [17] 0.042 | [18] -0.024 | [19] -0.057 | [20] 0.055

LPIN2 (UniProt Q92539)
inactive: [1] -0.123 | [2] -0.034 | [3] -0.083 | [4] 0.05 | [5] -0.056 | [6] 0.02 | [7] 0.163 | [8] 0.004 | [9] 0.061 | [10] 0.013 | [11] 0.024 | [12] -0.056 | [13] -0.025 | [14] 0.044 | [15] -0.001 | [16] 0.024 | [17] -0.067 | [18] -0.072 | [19] -0.203 | [20] -0.036

LAP3 (UniProt P28838)
inactive: [1] -0.015 | [2] -0.01 | [3] -0.01 | [4] 0.04 | [5] -0.007 | [6] 0.022 | [7] 0.026 | [8] -0.004 | [9] -0.034 | [10] 0.025 | [11] -0.013 | [12] 0.008 | [13] -0.011 | [14] 0.025 | [15] 0.007 | [16] 0.093 | [17] 0.088 | [18] 0.01 | [19] 0.008 | [20] -0.027

LEMD3 (UniProt Q9Y2U8)
inactive: [1] -0.171 | [2] -0.114 | [3] -0.127 | [4] -0.026 | [5] -0.106 | [6] 0.037 | [7] 0.163 | [8] 0.049 | [9] -0.008 | [10] 0.001 | [11] -0.206 | [12] -0.029 | [13] -0.142 | [14] -0.116 | [15] -0.017 | [16] 0.035 | [17] 0.053 | [18] -0.068 | [19] -0.077 | [20] 0.057

LNPEP (UniProt Q9UIQ6)
inactive: [1] -0.056 | [2] -0.007 | [3] 0.017 | [4] 0.026 | [5] 0.033 | [6] -0.024 | [7] 0.014 | [8] -0.007 | [9] 0.008 | [10] 0.035 | [11] 0.037 | [12] 0.011 | [13] -0.037 | [14] 0.019 | [15] -0.028 | [16] -0.007 | [17] 0.056 | [18] 0.002 | [19] 0.004 | [20] -0.022

LMF2 (UniProt Q9BU23)
inactive: [1] -0.068 | [2] 0.024 | [3] 0.047 | [4] -0.014 | [5] 0.033 | [6] 0.026 | [7] 0.021 | [8] 0.022 | [9] 0.019 | [10] 0.052 | [11] -0.008 | [12] -0.001 | [13] -0.057 | [14] -0.089 | [15] -0.006 | [16] 0.116 | [17] -0.068 | [18] 0.008 | [19] -0.016 | [20] 0.046

LARP4B (UniProt Q92615)
inactive: [1] 0.022 | [2] -0.025 | [3] -0.055 | [4] -0.192 | [5] -0.072 | [6] -0.092 | [7] -0.052 | [8] -0.031 | [9] -0.008 | [10] -0.038 | [11] 0.028 | [12] -0.042 | [13] 0.048 | [14] 0.022 | [15] 0.038 | [16] 0.027 | [17] -0.001 | [18] 0.008 | [19] 0.086 | [20] -0.112

LDB1 (UniProt Q86U70)
inactive: [1] -0.02 | [2] -0.063 | [3] 0.032 | [4] 0.016 | [5] 0.026 | [6] -0.001 | [7] -0.026 | [8] -0.007 | [9] 0.056 | [10] 0.037 | [11] 0.005 | [12] 0.022 | [13] 0.005 | [14] 0.006 | [15] 0.006 | [16] -0.004 | [17] 0.016 | [18] -0.015 | [19] 0.043 | [20] -0.081

LASP1 (UniProt Q14847)
inactive: [1] -0.054 | [2] 0.02 | [3] 0 | [4] -0.029 | [5] 0.036 | [6] -0.012 | [7] 0.011 | [8] 0.034 | [9] -0.015 | [10] 0.02 | [11] 0.018 | [12] 0.024 | [13] 0.029 | [14] 0.058 | [15] 0.001 | [16] -0.019 | [17] 0.012 | [18] -0.04 | [19] -0.042 | [20] 0.011

2 neighbouring records out of the list so far:
LCMT1 (UniProt Q9UIC8)
inactive: [1] -0.021 | [2] 0.068 | [3] -0.007 | [4] -0.001 | [5] -0.026 | [6] -0.028 | [7] 0.068 | [8] 0.008 | [9] -0.015 | [10] 0.088 | [11] -0.032 | [12] -0.018 | [13] -0.151 | [14] 0.015 | [15] 0.002 | [16] 0.027 | [17] 0.042 | [18] -0.024 | [19] -0.057 | [20] 0.055

LPIN2 (UniProt Q92539)
inactive: [1] -0.123 | [2] -0.034 | [3] -0.083 | [4] 0.05 | [5] -0.056 | [6] 0.02 | [7] 0.163 | [8] 0.004 | [9] 0.061 | [10] 0.013 | [11] 0.024 | [12] -0.056 | [13] -0.025 | [14] 0.044 | [15] -0.001 | [16] 0.024 | [17] -0.067 | [18] -0.072 | [19] -0.203 | [20] -0.036

Continued.

LNPK (UniProt Q9C0E8)
inactive: [1] -0.081 | [2] -0.035 | [3] -0.001 | [4] -0.009 | [5] 0.052 | [6] -0.007 | [7] 0.025 | [8] 0.011 | [9] 0.054 | [10] 0.072 | [11] 0.011 | [12] 0.01 | [13] 0.009 | [14] 0.014 | [15] -0.013 | [16] -0.006 | [17] 0.002 | [18] 0.072 | [19] -0.051 | [20] -0.006

LBR (UniProt Q14739)
inactive: [1] 0.113 | [2] 0.101 | [3] -0.201 | [4] -0.007 | [5] -0.017 | [6] -0.018 | [7] 0.041 | [8] 0.012 | [9] -0.141 | [10] 0.026 | [11] 0.025 | [12] -0.008 | [13] 0.004 | [14] -0.003 | [15] 0.023 | [16] 0.021 | [17] -0.021 | [18] -0.085 | [19] 0.012 | [20] 0.082

LONP1 (UniProt P36776)
inactive: [1] -0.002 | [2] 0 | [3] 0.011 | [4] 0.019 | [5] 0.029 | [6] 0.001 | [7] 0.006 | [8] 0.014 | [9] 0.028 | [10] -0.006 | [11] -0.006 | [12] -0.008 | [13] -0.024 | [14] -0.009 | [15] -0.008 | [16] -0.022 | [17] 0.006 | [18] -0.005 | [19] -0.016 | [20] -0.039
